Measurements as given in PubChem BioAssay AID504322 (Emory University Molecular Libraries Screening Center, 2011).
Active and inactive are the calls of the source. No rule for the calls is given here.

Tested on: CHOP reporter cell assay, percent of control
Assay: CHOP reporter inhibitor potency, dose response, cell-based (AID 504322);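 also: CHO cells carrying a CHOP reporter stimulated with tunicamycin to induce ER stress; potency is for inhibition of the stress-induced reporter signal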

Compound	IC50
COc1ccc2[nH]c3c(C)c4ccncc4c(C)c3c2c1	inactive
Nc1nonc1-n1nnc(C(=O)N/N=C/c2ccc(OCc3ccc(F)cc3)cc2)c1COc1ccccc1	inactive
CC(C)(C)C1CCC2(CC1)C(C#N)=C(SCC(=O)Nc1ccccc1)NC(=O)C2C#N (stereo not given)	inactive
COc1cc(CN2CCc3ccccc3C2)ccc1O	inactive: > 10 µM
CCc1ccc(Oc2coc3cc(OCC(=O)Nc4cc(C)ccc4C)ccc3c2=O)cc1	inactive
